Measured values taken from publication PMC10837246.
These are yes or no findings as the source states them, for the method shown. In cells and extracts the contact can be indirect. Some entries that bind do so weakly or less than the wild type.

By UniProt entry, the sequences of proteins in these tests, tags left out. Where a name states a change or a piece, a line headed by the entry shows the natural chain unless it says otherwise. Residues count along the entry.
UniProt Q62407, residues 855-3262: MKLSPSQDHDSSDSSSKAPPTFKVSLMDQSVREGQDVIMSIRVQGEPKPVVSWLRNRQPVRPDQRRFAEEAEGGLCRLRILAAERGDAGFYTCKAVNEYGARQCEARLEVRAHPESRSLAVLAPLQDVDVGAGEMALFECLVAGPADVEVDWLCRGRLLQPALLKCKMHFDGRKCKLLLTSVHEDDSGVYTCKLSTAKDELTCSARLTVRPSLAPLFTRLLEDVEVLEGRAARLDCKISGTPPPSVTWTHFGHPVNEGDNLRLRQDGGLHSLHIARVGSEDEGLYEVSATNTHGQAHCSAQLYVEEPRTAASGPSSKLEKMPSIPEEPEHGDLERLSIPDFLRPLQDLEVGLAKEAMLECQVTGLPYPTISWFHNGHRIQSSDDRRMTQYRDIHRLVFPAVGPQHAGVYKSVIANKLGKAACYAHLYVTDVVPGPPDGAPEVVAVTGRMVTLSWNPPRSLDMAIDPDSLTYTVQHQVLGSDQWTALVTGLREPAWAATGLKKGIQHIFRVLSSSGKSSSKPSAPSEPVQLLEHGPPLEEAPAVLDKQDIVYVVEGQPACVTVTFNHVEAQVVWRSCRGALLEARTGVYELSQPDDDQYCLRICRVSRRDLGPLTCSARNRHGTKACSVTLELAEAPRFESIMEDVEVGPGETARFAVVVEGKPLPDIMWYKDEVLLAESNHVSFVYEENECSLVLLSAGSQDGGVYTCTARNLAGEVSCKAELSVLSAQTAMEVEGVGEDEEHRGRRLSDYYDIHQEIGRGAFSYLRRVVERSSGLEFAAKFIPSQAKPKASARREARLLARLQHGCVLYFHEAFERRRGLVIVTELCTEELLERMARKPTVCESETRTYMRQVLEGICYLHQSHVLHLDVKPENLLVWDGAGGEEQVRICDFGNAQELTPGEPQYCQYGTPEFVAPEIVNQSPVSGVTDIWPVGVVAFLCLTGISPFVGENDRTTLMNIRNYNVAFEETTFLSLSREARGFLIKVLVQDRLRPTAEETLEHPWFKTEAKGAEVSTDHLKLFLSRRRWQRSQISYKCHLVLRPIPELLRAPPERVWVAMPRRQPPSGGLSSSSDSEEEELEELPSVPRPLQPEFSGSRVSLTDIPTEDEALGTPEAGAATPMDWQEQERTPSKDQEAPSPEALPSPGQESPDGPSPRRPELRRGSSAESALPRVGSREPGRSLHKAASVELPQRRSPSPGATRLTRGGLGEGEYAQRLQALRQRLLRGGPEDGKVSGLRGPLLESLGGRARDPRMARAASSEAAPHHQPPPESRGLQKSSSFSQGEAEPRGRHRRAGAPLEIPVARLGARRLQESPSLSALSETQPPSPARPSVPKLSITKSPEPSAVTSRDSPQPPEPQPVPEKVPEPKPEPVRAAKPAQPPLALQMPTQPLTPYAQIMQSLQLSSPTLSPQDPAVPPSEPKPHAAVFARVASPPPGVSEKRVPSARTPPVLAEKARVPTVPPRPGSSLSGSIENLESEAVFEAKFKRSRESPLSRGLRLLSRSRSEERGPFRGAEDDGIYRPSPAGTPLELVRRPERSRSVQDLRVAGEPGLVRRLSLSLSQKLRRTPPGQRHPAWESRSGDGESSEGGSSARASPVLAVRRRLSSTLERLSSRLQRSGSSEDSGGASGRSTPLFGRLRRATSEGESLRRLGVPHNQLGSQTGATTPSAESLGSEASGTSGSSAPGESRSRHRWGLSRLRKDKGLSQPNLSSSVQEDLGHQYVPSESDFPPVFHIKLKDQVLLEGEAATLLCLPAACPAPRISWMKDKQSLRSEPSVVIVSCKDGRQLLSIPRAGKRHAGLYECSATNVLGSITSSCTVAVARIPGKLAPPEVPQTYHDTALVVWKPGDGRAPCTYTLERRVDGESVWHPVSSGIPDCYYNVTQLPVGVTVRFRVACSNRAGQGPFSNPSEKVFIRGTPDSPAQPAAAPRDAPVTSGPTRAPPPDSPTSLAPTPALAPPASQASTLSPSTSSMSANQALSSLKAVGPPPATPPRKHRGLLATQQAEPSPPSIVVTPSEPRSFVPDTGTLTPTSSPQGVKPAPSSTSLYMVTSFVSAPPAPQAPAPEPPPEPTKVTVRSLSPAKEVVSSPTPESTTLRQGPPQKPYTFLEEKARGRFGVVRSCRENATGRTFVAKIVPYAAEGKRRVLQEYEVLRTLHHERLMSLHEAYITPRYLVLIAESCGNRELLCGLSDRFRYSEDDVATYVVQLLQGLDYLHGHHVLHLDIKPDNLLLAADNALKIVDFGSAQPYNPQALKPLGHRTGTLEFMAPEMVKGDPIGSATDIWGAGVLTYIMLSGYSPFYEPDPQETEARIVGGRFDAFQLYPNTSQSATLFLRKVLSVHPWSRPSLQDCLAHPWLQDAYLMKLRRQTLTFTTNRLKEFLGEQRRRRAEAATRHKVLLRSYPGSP
UniProt Q3UMR5, residues 50-350: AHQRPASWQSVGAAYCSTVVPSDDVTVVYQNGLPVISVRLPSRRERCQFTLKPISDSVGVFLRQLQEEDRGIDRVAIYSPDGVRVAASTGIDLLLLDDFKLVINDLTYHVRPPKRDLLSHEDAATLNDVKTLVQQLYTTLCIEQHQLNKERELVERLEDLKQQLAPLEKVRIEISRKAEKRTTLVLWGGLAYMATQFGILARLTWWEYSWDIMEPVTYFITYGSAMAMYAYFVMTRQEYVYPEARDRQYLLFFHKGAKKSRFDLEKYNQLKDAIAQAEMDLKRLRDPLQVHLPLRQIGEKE

Experiments:
[1] = target: Striated preferentially expressed gene (Speg), Spegα isoform (mouse (endogenous in adult mouse heart)) (UniProt Q62407); assay: co-IP; adult mouse heart homogenised in Pierce IP lysis buffer with protease and phosphatase inhibitors; 1500 μg protein pre-cleared, incubated with Speg or PGC-1α antibody overnight at 4 °C, magnetic Protein-A Dynabeads 2 h at 4 °C; Western blot; normal rabbit IgG as control
[2] = target: T1, Peroxisome proliferator-activated receptor γ coactivator 1α (PGC-1α) (mouse (endogenous in adult mouse heart)) (UniProt O70343); assay: as above
T1 sequence: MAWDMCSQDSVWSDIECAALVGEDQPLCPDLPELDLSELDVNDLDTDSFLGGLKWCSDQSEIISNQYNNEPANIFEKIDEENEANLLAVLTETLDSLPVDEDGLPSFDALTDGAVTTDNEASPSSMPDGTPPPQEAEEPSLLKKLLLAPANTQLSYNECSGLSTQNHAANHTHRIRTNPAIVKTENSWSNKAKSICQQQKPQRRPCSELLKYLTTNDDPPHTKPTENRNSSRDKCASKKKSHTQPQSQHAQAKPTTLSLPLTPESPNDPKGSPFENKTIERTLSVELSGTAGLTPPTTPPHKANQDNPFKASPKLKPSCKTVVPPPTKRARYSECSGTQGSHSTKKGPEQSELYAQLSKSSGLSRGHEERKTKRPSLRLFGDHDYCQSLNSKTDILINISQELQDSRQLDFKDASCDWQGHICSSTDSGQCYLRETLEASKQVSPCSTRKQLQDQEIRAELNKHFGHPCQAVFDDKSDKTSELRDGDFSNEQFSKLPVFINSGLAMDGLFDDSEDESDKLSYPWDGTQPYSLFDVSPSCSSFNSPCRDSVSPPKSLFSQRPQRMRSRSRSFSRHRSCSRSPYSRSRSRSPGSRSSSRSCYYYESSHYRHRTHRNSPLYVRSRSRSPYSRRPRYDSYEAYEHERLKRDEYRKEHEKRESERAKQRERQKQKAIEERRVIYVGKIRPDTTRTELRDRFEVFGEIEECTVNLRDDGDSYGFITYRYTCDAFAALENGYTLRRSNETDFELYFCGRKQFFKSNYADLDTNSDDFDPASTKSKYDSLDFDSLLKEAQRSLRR

Substance | binding [1] | binding [2]
Mitochondrial calcium uniporter (MCU) (from UniProt Q3UMR5 50-350) | no binding | 
Striated preferentially expressed gene (Speg), Spegα isoform (from UniProt Q62407-4 1-2408) |  | binds
